Test results from PMC5461540, “MOB1 Mediated Phospho-recognition in the Core Mammalian Hippo Pathway” (Molecular & Cellular Proteomics : MCP, 2017).
Results are given in words; binding and its absence hold for the method and conditions named. Binding seen in cells or lysates may run through a third protein. A result given as binding can be weak or reduced; the word gives no strength. Where a sequence is shown, tags or fusion partners need not be part of it.

Sequences of proteins named here, by UniProt entry; tags and fusion partners are left off. A change or cut given only in a name is not applied to a line headed by its entry.
UniProt Q7L9L4: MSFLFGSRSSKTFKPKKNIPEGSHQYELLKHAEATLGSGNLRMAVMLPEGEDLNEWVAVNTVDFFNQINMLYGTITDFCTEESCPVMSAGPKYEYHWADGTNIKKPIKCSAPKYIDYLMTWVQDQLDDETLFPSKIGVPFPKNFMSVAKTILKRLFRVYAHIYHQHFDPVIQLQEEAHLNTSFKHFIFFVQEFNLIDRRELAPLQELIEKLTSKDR

Molecular target: GST-MOB1B (human) (UniProt Q7L9L4)
Experiment: pull-down; ~1 ug GST-MOB1B on glutathione-Sepharose beads, 2 h with lysate (CHAPS lysis buffer: 40 mM Hepes pH 7.5, 120 mM NaCl, 1 mM EDTA, 0.3% CHAPS) of cells expressing FLAG- or BirA*-FLAG-tagged MST1 constructs after 150 nM okadaic acid for 2.5 h; anti-FLAG immunoblot; only the target purified

Row | binding | Binder
1 | binds | 3xFLAG-MST1 T353A/T367A double mutant (protein, UniProt Q13043-1 1-487) METVQLRNPPRRQLKKLDEDSLTKQPEEVFDVLEKLGEGSYGSVYKAIHKETGQIVAIKQVPVESDLQEIIKEISIMQQCDSPHVVKYYGSYFKNTDLWIVMEYCGAGSVSDIIRLRNKTLTEDEIATILQSTLKGLEYLHFMRKIHRDIKAGNILLNTEGHAKLADFGVAGQLTDTMAKRNTVIGTPFWMAPEVIQEIGYNCVADIWSLGITAIEMAEGKPPYADIHPMRAIFMIPTNPPPTFRKPELWSDNFTDFVKQCLVKSPEQRATATQLLQHPFVRSAKGVSILRDLINEAMDVKLKRQESQQREVDQDDEENSEEDEMDSGTMVRAVGDEMGTVRVASTMTDGANAMIEHDDTLPSQLGAMVINAEDEEEEGTMKRRDETMQPAKPSFLEYFEQKEKENQINSFGKSVPGPLKNSSDWKIPQDGDYEFLKSWTVEDLQKRLLALDPMMEQEIEEIRQKYQSKRQPILDAIEAKKRRQQNF
2 | binds | 3xFLAG-MST1 T353A/T367A/T387A triple mutant (protein, UniProt Q13043-1 1-487) METVQLRNPPRRQLKKLDEDSLTKQPEEVFDVLEKLGEGSYGSVYKAIHKETGQIVAIKQVPVESDLQEIIKEISIMQQCDSPHVVKYYGSYFKNTDLWIVMEYCGAGSVSDIIRLRNKTLTEDEIATILQSTLKGLEYLHFMRKIHRDIKAGNILLNTEGHAKLADFGVAGQLTDTMAKRNTVIGTPFWMAPEVIQEIGYNCVADIWSLGITAIEMAEGKPPYADIHPMRAIFMIPTNPPPTFRKPELWSDNFTDFVKQCLVKSPEQRATATQLLQHPFVRSAKGVSILRDLINEAMDVKLKRQESQQREVDQDDEENSEEDEMDSGTMVRAVGDEMGTVRVASTMTDGANAMIEHDDTLPSQLGAMVINAEDEEEEGTMKRRDEAMQPAKPSFLEYFEQKEKENQINSFGKSVPGPLKNSSDWKIPQDGDYEFLKSWTVEDLQKRLLALDPMMEQEIEEIRQKYQSKRQPILDAIEAKKRRQQNF
3 | no binding | BirA*-FLAG-MST1 aa 1–327 (domain or fragment, UniProt Q13043-1 1-327) METVQLRNPPRRQLKKLDEDSLTKQPEEVFDVLEKLGEGSYGSVYKAIHKETGQIVAIKQVPVESDLQEIIKEISIMQQCDSPHVVKYYGSYFKNTDLWIVMEYCGAGSVSDIIRLRNKTLTEDEIATILQSTLKGLEYLHFMRKIHRDIKAGNILLNTEGHAKLADFGVAGQLTDTMAKRNTVIGTPFWMAPEVIQEIGYNCVADIWSLGITAIEMAEGKPPYADIHPMRAIFMIPTNPPPTFRKPELWSDNFTDFVKQCLVKSPEQRATATQLLQHPFVRSAKGVSILRDLINEAMDVKLKRQESQQREVDQDDEENSEEDEMDS
4 | binds | BirA*-FLAG-MST1 aa 328–487 (domain or fragment, UniProt Q13043-1 328-487) GTMVRAVGDEMGTVRVASTMTDGANTMIEHDDTLPSQLGTMVINAEDEEEEGTMKRRDETMQPAKPSFLEYFEQKEKENQINSFGKSVPGPLKNSSDWKIPQDGDYEFLKSWTVEDLQKRLLALDPMMEQEIEEIRQKYQSKRQPILDAIEAKKRRQQNF
